This note sets out measurements from article PMC4565979.

The exact form of at least one protein or probe is not confirmed. For some of these results: The comparison behind a weaker result is the experiment's own reference, which may not be listed here. For some of these results: At least one verdict was read from the data and is not stated in words by the source. For some of these results: Protein sequences can lack the tags named with them.

Data set [1] relates to Mot1NTD + TBP + NC2alpha + NC2beta. The experiment in a line: X-ray crystallography 3.8 A. The note with it: gel filtration: 20 mM MES pH 6.5 or HEPES pH 8.2, 60 mM KCl, 5 mM MgCl2, 2 mM DTT, 4 C; recombinant protein. Background: In gel filtration, larger molecules generally elute earlier.
In data set [2] the test system is Mot1 + TBP + NC2alpha + NC2beta. Nature of the data set: negative stain EM 22 A. The note with it: 1 mM ADP-BeFx; gel filtration: 20 mM MES pH 6.5 or HEPES pH 8.2, 60 mM KCl, 5 mM MgCl2, 2 mM DTT, 4 C; recombinant protein.
The test system is the same in data set [3]. The experiment in a line: gel filtration / CX-MS. The note with it: ADP-BeFx, ATPgS or ADP, 1 mM; gel filtration: 20 mM MES pH 6.5 or HEPES pH 8.2, 60 mM KCl, 5 mM MgCl2, 2 mM DTT, 4 C; recombinant protein.
For data set [4] the test system is unchanged. The experiment in a line: EMSA. As to conditions: EMSA: 0.5 nM DNA, 20 nM TBP, 30 nM Mot1, 30 nM NC2, 4% glycerol, 4 mM Tris-HCl pH 8, 60 mM KCl, 5 mM MgCl2, 25 C, recombinant protein. Background: In EMSA bound probe runs differently from free probe, usually more slowly.
A further data set deals with Mot1 + TBP. Nature of the data set: EMSA. The note with it: EMSA: 0.5 nM DNA, 20 nM TBP, 30 nM Mot1, 30 nM NC2, 4% glycerol, 4 mM Tris-HCl pH 8, 60 mM KCl, 5 mM MgCl2, 25 C, recombinant protein, protein details: N-terminal His6,N-terminal His6, label: fluorescein at 5' end of one strand.
Data set [5] has as its system Mot1 delta-latch + TBP + NC2alpha + NC2beta. Nature of the data set: EMSA. As to conditions: 50 uM ATP, impaired TBP removal; EMSA: 0.5 nM DNA, 20 nM TBP, 30 nM Mot1, 30 nM NC2, 4% glycerol, 4 mM Tris-HCl pH 8, 60 mM KCl, 5 mM MgCl2, 25 C; recombinant protein; protein details: N-terminal His6,none,His6 removed by TEV; label: fluorescein at 5' end of one strand.
The subject of a further data set is Mot1 delta-latch + TBP. The experiment in a line: EMSA. The note with it: 50 uM ATP, impaired TBP removal; EMSA: 0.5 nM DNA, 20 nM TBP, 30 nM Mot1, 30 nM NC2, 4% glycerol, 4 mM Tris-HCl pH 8, 60 mM KCl, 5 mM MgCl2, 25 C; recombinant protein; protein details: N-terminal His6; label: fluorescein at 5' end of one strand.
The test system of data set [6] is Mot1NTD + TBP + NC2alpha + NC2beta. Nature of the data set: EMSA. The note with it: no ATP, NC2 prevents displacement; EMSA: 0.5 nM DNA, 20 nM TBP, 30 nM Mot1, 30 nM NC2, 4% glycerol, 4 mM Tris-HCl pH 8, 60 mM KCl, 5 mM MgCl2, 25 C; recombinant protein; label: fluorescein at 5' end of one strand.
The next data set concerns Mot1NTD + TBP. Nature of the data set: EMSA. As to conditions: no ATP, Mot1NTD displaces TBP from DNA; EMSA: 0.5 nM DNA, 20 nM TBP, 30 nM Mot1, 30 nM NC2, 4% glycerol, 4 mM Tris-HCl pH 8, 60 mM KCl, 5 mM MgCl2, 25 C; recombinant protein; protein details: N-terminal His6,N-terminal His6; label: fluorescein at 5' end of one strand.
Data set [7] relates to Mot1NTD delta-latch + TBP + NC2alpha + NC2beta. The experiment in a line: EMSA. As to conditions: no ATP, distinct shift; EMSA: 0.5 nM DNA, 20 nM TBP, 30 nM Mot1, 30 nM NC2, 4% glycerol, 4 mM Tris-HCl pH 8, 60 mM KCl, 5 mM MgCl2, 25 C; recombinant protein; protein details: N-terminal His6,none,His6 removed by TEV; label: fluorescein at 5' end of one strand.
Data set [8] has as its system Mot1NTD delta-latch + TBP. The experiment in a line: EMSA. The note with it: no ATP, more stable than Mot1NTD; EMSA: 0.5 nM DNA, 20 nM TBP, 30 nM Mot1, 30 nM NC2, 4% glycerol, 4 mM Tris-HCl pH 8, 60 mM KCl, 5 mM MgCl2, 25 C; recombinant protein; protein details: N-terminal His6; label: fluorescein at 5' end of one strand.
In data set [9] the target is T1, TBP (Encephalitozoon cuniculi) (UniProt Q8ST28).
T1 sequence (looked up): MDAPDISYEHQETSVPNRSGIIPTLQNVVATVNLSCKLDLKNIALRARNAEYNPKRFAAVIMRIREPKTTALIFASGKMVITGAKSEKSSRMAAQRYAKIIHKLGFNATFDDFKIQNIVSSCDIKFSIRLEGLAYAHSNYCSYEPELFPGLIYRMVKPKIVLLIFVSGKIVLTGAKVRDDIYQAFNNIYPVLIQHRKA
Nature of the data set: EMSA. The note with it: 20 nM TBP, no ATP, EMSA: 0.5 nM DNA, 30 nM Mot1, 30 nM NC2, 4% glycerol, 4 mM Tris-HCl pH 8, 60 mM KCl, 5 mM MgCl2, 25 C, recombinant protein, residues 1-198, protein details: N-terminal His6, label: fluorescein at 5' end of one strand.

A further data set concerns TBP + NC2alpha + NC2beta. Nature of the data set: EMSA. As to conditions: no ATP; EMSA: 0.5 nM DNA, 20 nM TBP, 30 nM Mot1, 30 nM NC2, 4% glycerol, 4 mM Tris-HCl pH 8, 60 mM KCl, 5 mM MgCl2, 25 C; recombinant protein; protein details: N-terminal His6,none,His6 removed by TEV; label: fluorescein at 5' end of one strand.

On to “AGTAGGGCTATAAAAGGGGGTGGC (double strand) [24 bp crystallization TATA DNA]”, for which the binding result in data set [1] was “binds”.

“CAGGCCGGGCGCCCGGCATGGCGGCCTATAAAAGGGTC (double strand) [38 bp EM TATA DNA]”: in data set [2], the binding result was “binds”.

As to “CAGTACGGCCGGGCGCCCGGCATGGCGGCCTATAAAAGGGTC (double strand) [42 bp CX-MS TATA DNA]”, in data set [3], the binding result was “binds”.

With “GGGTACGGCCGGGCGCCCCGGATGGGGGGCTATAAAAGGGGGTGGGC (double strand) [47 bp TATA EMSA probe]”, the binding result in data set [4] (50 uM ATP, complex dissociated, label: fluorescein at 5' end of one strand) was “binds more weakly”; in data set [4] (no ATP, label: fluorescein at 5' end of one strand), “binds”; with Mot1 + TBP (50 uM ATP, Mot1 dissociates TBP from DNA), “binds more weakly”; with Mot1 + TBP (no ATP), “binds”; in data set [5] it was “binds”; in the data set with Mot1 delta-latch + TBP, “binds”. For the same sequence, the binding result in data set [6] is given as “binds”; in the data set on Mot1NTD + TBP, “binds more weakly”; in [7] it was “binds”; in data set [8], “binds”; in [9], “binds”; with TBP + NC2alpha + NC2beta it was “binds”.

Consider “GGGTACGGCCGGGCGCCCCGGATGGGGGGCTATAAAAGGGGGTGGGC (double strand) [47 bp digoxygenin end-blocked probe]”, for which the binding result in data set [4] (50 uM ATP, anti-digoxygenin antibody 2.5 nM, end block does not affect dissociation, 5' digoxygenin on top or bottom strand, label: 5' fluorescein and 5' digoxygenin) is reported as “binds more weakly”.
